No constants are given. Whether binding was seen depends on the method and setting. Binding calls can cover weak binding; strength is not graded here.

Results on one molecule are retold here after PMC9654355.

The assay concerns the target ZmSRG7 (stress-related gene, mapping chromosome 7; Zm00001d019704) (maize (Zea mays L.)). In words: two-hybrid; GAL4 system, bait in pGBKT7 (BD), prey in pGADT7 (AD); transformation checked on SD/-Trp/-Leu; interaction read as growth and blue colour on SD/-Leu/-Trp/-His/-Ade with X-alpha-Gal.

B1: Zmdhn1 protein (protein, UniProt P12950 1-168)
chain: MEYGQQGQRGHGRTGHVDQYGNPVGGVEHGTGGMRHGTGTTGGMGQLGEHGGAGMGGGQFQPAREEHKTGGILHRSGSSSSSSSEDDGMGGRRKKGIKEKIKEKLPGGHKDDQHATATTGGAYGQQGHTGSAYGQQGHTGGAYATGTEGTGEKKGIMDKIKEKLPGQH
B1: the binding result is “binds”.
